Test results published in patent publication US20080160018A1.
No constants are given. Whether binding was seen depends on the method and setting. Some binding calls cover weakened binding; strength is not graded here.

Sequences of proteins named here, by UniProt entry; tags and fusion partners are left off. Residues count along the entry.
UniProt P12824, residues 24-743: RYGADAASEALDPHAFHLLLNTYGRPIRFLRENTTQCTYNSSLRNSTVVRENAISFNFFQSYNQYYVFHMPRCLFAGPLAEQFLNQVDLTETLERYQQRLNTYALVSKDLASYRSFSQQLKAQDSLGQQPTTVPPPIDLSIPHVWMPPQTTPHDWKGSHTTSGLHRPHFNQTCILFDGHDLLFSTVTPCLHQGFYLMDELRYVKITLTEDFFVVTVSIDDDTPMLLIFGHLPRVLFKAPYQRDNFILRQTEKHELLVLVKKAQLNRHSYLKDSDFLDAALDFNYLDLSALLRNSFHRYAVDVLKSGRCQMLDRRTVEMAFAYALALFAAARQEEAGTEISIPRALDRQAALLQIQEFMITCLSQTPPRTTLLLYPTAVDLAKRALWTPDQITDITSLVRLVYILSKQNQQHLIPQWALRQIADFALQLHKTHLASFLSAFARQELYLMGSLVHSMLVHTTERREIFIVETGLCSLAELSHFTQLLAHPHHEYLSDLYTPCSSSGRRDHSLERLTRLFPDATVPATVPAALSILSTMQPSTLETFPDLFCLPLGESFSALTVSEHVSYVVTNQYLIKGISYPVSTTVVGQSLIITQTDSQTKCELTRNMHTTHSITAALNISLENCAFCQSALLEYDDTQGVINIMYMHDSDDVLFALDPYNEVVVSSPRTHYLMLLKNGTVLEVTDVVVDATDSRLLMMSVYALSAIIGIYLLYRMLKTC

Target: gH glycoprotein of cytomegalovirus on CMV-infected HEL cells (cytomegalovirus (CMV)) (UniProt P12824)
Test: immunostaining of CMV-infected human embryonic lung fibroblasts

B1: chimeric CMV5 antibody (antibody, V domains shown)
VH: EVQLQQSGPELVKPGASMKISCKASVYSFTGYTMNWVKQSHGQNLEWIGLINPYNGGTSYNQKFKGKATLTVDKSSNTAYMELLSLTSADSAVYYCTRRGFRDYSMDYWGQGTSVTVSS
VL: DIVLTQSPATLSVTPGDSVSLSCRASQSISNNLHWYQQKSHESPRLLIKYASQSISGIPSRFSGSGSGTDFTLSVNGVETEDFGMYFCQQSNSWPHTFGGGTKLEIK
For B1, the binding was “binds”.
